From ChEMBL document CHEMBL4513141, “CO-ADD screening of NIH (USA) - Clinical Collection” (2021)
Some of the results follow. Potency and affinity values are given separately. Square brackets hold non-standard residues; d marks the D form. Peptide text beside a SMILES is read from it. pGlu = O=C1CC[C@@H](C(=O)O)N1; Thz = O=C(O)[C@@H]1CSCN1

These compounds were tested on Pseudomonas aeruginosa. Details: Concentration 20 uM; ASSAY_TEST Inhibition of Bacterial Growth; detection method Absorption (OD600); MEDIA CAMHB; plate type 384well; NBS; CORNING #3640; time 18 hr.

Row | SMILES | Inhibition [%]
1 | Nc1nc(N)c2nc(-c3ccccc3)c(N)nc2n1 | 9.67
2 | COc1cc(OC)c(C(=O)CCCN2CCCC2)c(OC)c1.Cl | 20.78
3 | CC1(C)S[C@@H]2[C@H](NC(=O)[C@H](N)c3ccc(O)cc3)C(=O)N2[C@H]1C(=O)O [AMOXICILLIN] | 10.8
4 | Cl.OC(CCN1CCCC1)(c1ccccc1)C1CCCCC1 (configuration not stated) [PROCYCLIDINE HYDROCHLORIDE] | 7.85
5 | COc1ccc(-c2cc(=O)c3c(OC)c(OC)c(OC)c(OC)c3o2)cc1OC [NOBILETIN] | 15.83
6 | CCN(CC)CCNC(=O)c1ccc(N)cc1.Cl [PROCAINAMIDE HYDROCHLORIDE] | 1.69
7 | NNC(=O)c1ccncc1 [ISONIAZID] | 1.16
8 | CC(C)[C@H](N)C(=O)OCCOCn1cnc2c(=O)nc(N)[nH]c21.Cl [VALACYCLOVIR HYDROCHLORIDE] | 17.42
9 | Cl.Nc1c2c(nc3ccccc13)CCCC2 [TACRINE HYDROCHLORIDE] | 19.73
10 | CCOC(=O)c1ccc(OC(=O)CCCCCN=C(N)N)cc1.CS(=O)(=O)O | 17.94
11 | O=C(O)c1cccnc1 [NIACIN] | 7.84
12 | CC(=O)Nc1nnc(S(N)(=O)=O)s1 [ACETAZOLAMIDE] | 10.89
13 | CC(C)Oc1ccc2c(=O)c(-c3ccccc3)coc2c1 [IPRIFLAVONE] | 14.52
14 | CCCCC(=O)O[C@H]1CC[C@H]2[C@@H]3CCc4cc(O)ccc4[C@H]3CC[C@]12C [ESTRADIOL VALERATE] | 3.52
15 | Cl.Clc1ccccc1CN1CCc2sccc2C1 [TICLOPIDINE HYDROCHLORIDE] | 13.69
16 | CC(Cc1ccccc1)(NC(=O)CN)c1ccccc1.Cl (configuration not stated) [REMACEMIDE HYDROCHLORIDE] | 20.6
17 | CNCC(O)c1ccc(O)c(O)c1 (configuration not stated) [RACEPINEPHRINE] | 18.53
18 | Cc1ccc(-c2cc(C(F)(F)F)nn2-c2ccc(S(N)(=O)=O)cc2)cc1 [CELECOXIB] | 8.62
19 | C[C@@H]1CN(CCCn2c3ccccc3c3ccccc32)C[C@H](C)N1.Cl.O | 11.4
20 | Cc1cccc(C)c1OCC(C)N.Cl (configuration not stated) [MEXILETINE HYDROCHLORIDE] | 15.77
21 | CN(C)CCCN1c2ccccc2CCc2ccc(Cl)cc21.Cl [CLOMIPRAMINE HYDROCHLORIDE] | 21.88
22 | COc1cc2nc(N3CCN(C(=O)C4COc5ccccc5O4)CC3)nc(N)c2cc1OC (configuration not stated) [DOXAZOSIN] | 9.67
23 | COc1ccc(Cl)cc1C(=O)NCCc1ccc(S(=O)(=O)NC(=O)NC2CCCCC2)cc1 [GLYBURIDE] | -8.45
24 | CC(COc1ccccc1)NC(C)C(O)c1ccc(O)cc1.Cl (configuration not stated) [ISOXSUPRINE HYDROCHLORIDE] | 1.64

Looked up above.
In Inhibition [%], COc1ccc(Cl)cc1C(=O)NCCc1ccc(S(=O)(=O)NC(=O)NC2CCCCC2)cc1 [GLYBURIDE] is listed with -8.45
In Inhibition [%], Cl.Clc1ccccc1CN1CCc2sccc2C1 [TICLOPIDINE HYDROCHLORIDE] is listed with 13.69

Going on with the list:

Row | SMILES | Inhibition [%]
25 | Cl.O=C(O)/C=C/c1ccc(Cn2ccnc2)cc1 | 2.38
26 | CC(CN1c2ccccc2Sc2ccccc21)N(C)C.Cl (configuration not stated) [PROMETHAZINE HYDROCHLORIDE] | 14.84
27 | CCOC(=O)O[C@]1(C(=O)OCCl)CC[C@H]2[C@@H]3CCC4=CC(=O)C=C[C@]4(C)[C@H]3[C@@H](O)C[C@@]21C [LOTEPREDNOL ETABONATE] | 16.35
28 | CCCNC(=O)NS(=O)(=O)c1ccc(Cl)cc1 [CHLORPROPAMIDE] | 18.11
29 | CC[C@H](C)C(=O)O[C@H]1CCC=C2C=C[C@H](C)[C@H](CC[C@@H]3C[C@@H](O)CC(=O)O3)[C@H]21 [MEVASTATIN] | 2.53
30 | CC=CC(=O)N(CC)c1ccccc1C | 1.59
31 | Nc1nc2c(ncn2COC(CO)CO)c(=O)[nH]1 [GANCICLOVIR] | 9.56
32 | Cc1cccc(CCN2CCC(C(=O)c3ccc(NS(C)(=O)=O)cc3)CC2)n1.Cl.Cl | 12
33 | CC(C)NCC(O)COc1ccc(CC(N)=O)cc1 (configuration not stated) [ATENOLOL] | 6.08
34 | Cc1[nH]cnc1CN1CCc2c(c3ccccc3n2C)C1=O.Cl [ALOSETRON HYDROCHLORIDE] | 11.96
35 | CCOC(=O)[C@H](CCc1ccccc1)N[C@@H](C)C(=O)N1[C@H](C(=O)O)C[C@@H]2CCC[C@@H]21 | 53.62
36 | Nc1ncnc2c1ncn2[C@@H]1O[C@H](CO)[C@@H](O)[C@@H]1O [VIDARABINE] | 12.75
37 | NC(CO)(CO)CO.O=C(c1ccccc1)c1ccc2n1CCC2C(=O)O (configuration not stated) [KETOROLAC TROMETHAMINE] | 16.5
38 | CCOc1cc(N)c(Cl)cc1C(=O)NCC1CN(Cc2ccc(F)cc2)CCO1.O=C(O)CC(O)(CC(=O)O)C(=O)O (configuration not stated) [MOSAPRIDE CITRATE] | 12.23
39 | Cl.NC[C@H]1CC[C@H](C(=O)Oc2ccc(CCC(=O)O)cc2)CC1 [CETRAXATE HYDROCHLORIDE] | 11.42
40 | O=C1CC[C@@H](C(=O)N2CSC[C@H]2C(=O)O)N1 [PIDOTIMOD] ([pGlu]-[Thz]-OH) | 34.23
41 | CCC1(c2ccccc2)C(=O)NCNC1=O [PRIMIDONE] | 10.25
42 | NC(N)=Nc1nc(CSCC/C(N)=N/S(N)(=O)=O)cs1 [FAMOTIDINE] | 4.47
43 | CC1=C(/C=C/C(C)=C/C=C/C(C)=C\C(=O)O)C(C)(C)CCC1 [ISOTRETINOIN] | 3.08
44 | CCCCC(=O)OC1(C(=O)CO)CCC2C3CCC4=CC(=O)CCC4(C)C3C(O)CC21C (configuration not stated) | 4.02
45 | COc1ccccc1OCC(O)CN1CCN(CC(=O)Nc2c(C)cccc2C)CC1.Cl.Cl (configuration not stated) [RANOLAZINE HYDROCHLORIDE] | 12.05
46 | Cc1ccc(S(=O)(=O)NC(=O)NN2CCCCCC2)cc1 [TOLAZAMIDE] | 4.73
47 | Nc1ccn([C@@H]2O[C@H](CO)[C@@H](O)[C@@H]2O)c(=O)n1 [CYTARABINE] | 9.51
48 | CO[C@H]1O[C@@H]2O[C@@]3(C)CC[C@H]4[C@H](C)CC[C@@H]([C@H]1C)[C@@]24OO3 | 12.03

A draw from above in order of molar mass, descending:
Row | SMILES | Inhibition [%]
48 | CO[C@H]1O[C@@H]2O[C@@]3(C)CC[C@H]4[C@H](C)CC[C@@H]([C@H]1C)[C@@]24OO3 | 12.03
33 | CC(C)NCC(O)COc1ccc(CC(N)=O)cc1 (configuration not stated) [ATENOLOL] | 6.08
47 | Nc1ccn([C@@H]2O[C@H](CO)[C@@H](O)[C@@H]2O)c(=O)n1 [CYTARABINE] | 9.51

Next part.

Row | SMILES | Inhibition [%]
49 | Cl.O=C1[C@H]2CCCC[C@H]2C(=O)N1CCCCN1CCN(c2nsc3ccccc23)CC1 | 11.31
50 | CC(C)c1ccc2c(c1)c(SC(C)(C)C)c(CC(C)(C)C(=O)O)n2Cc1ccc(Cl)cc1 | 7.2
51 | CC1CC2C3CCC4=CC(=O)C=CC4(C)[C@@]3(Cl)C(O)CC2(C)C1(O)C(=O)CO (some centres not stated) | 10.12
52 | CC(Oc1c(Cl)cccc1Cl)C1=NCCN1.Cl (configuration not stated) [LOFEXIDINE HYDROCHLORIDE] | 8.67
53 | CC(C)[N+]1(C)C2CCC1CC(OC(=O)C(CO)c1ccccc1)C2.[Br-] (configuration not stated) | 9.29
54 | Nc1ccn([C@@H]2CS[C@H](CO)O2)c(=O)n1 [LAMIVUDINE] | 10.87
55 | COc1ccccc1OCC(O)COC(N)=O (configuration not stated) [METHOCARBAMOL] | 19.81
56 | Cl.Clc1cccc(Cl)c1NC1=NCCN1 [CLONIDINE HYDROCHLORIDE] | 37.06
57 | COc1ccc([C@@H]2Sc3ccccc3N(CCN(C)C)C(=O)[C@@H]2OC(C)=O)cc1.Cl [DILTIAZEM HYDROCHLORIDE] | 6.94
58 | C[C@H]1C[C@@H]2[C@H]([C@@H](O)C[C@@]3(C)[C@H]2CC[C@]3(O)C(=O)CO)[C@@]2(C)C=CC(=O)C=C12 [METHYLPREDNISOLONE] | 16.45
59 | CC(COc1ccccc1Cc1ccccc1)N1CCCCC1.O=P(O)(O)O (configuration not stated) | 11.13
60 | C=C1/C(=C\C=C2/CCC[C@]3(C)[C@@H]([C@H](C)CCCC(C)(C)O)CC[C@@H]23)C[C@@H](O)C[C@@H]1O [CALCITRIOL] | 19.82
61 | CC[C@@H]1C(=O)OC[C@@H]1Cc1cncn1C.Cl [PILOCARPINE HYDROCHLORIDE] | 13.04
62 | CCC(=O)OCC(=O)[C@@]1(OC(=O)CC)[C@@H](C)C[C@H]2[C@@H]3CCC4=CC(=O)C=C[C@]4(C)[C@@]3(Cl)[C@@H](O)C[C@@]21C [BECLOMETHASONE DIPROPIONATE] | 2.46
63 | C#C[C@]1(O)CC[C@H]2[C@@H]3CCC4=Cc5oncc5C[C@]4(C)[C@H]3CC[C@@]21C [DANAZOL] | 3.85
64 | O=C1CCC(N2C(=O)c3ccccc3C2=O)C(=O)N1 (configuration not stated) [THALIDOMIDE] | 8.64
65 | CN(C)C(=O)Oc1ccc[n+](C)c1.[Br-] [PYRIDOSTIGMINE BROMIDE] | 13.06
66 | Cc1cccc(Nc2ccccc2C(=O)O)c1C [MEFENAMIC ACID] | 13.19
67 | CC(=O)OCC(=O)[C@@]12OC(C)(C)O[C@@H]1C[C@H]1[C@@H]3C[C@H](F)C4=CC(=O)C=C[C@]4(C)[C@@]3(F)[C@@H](O)C[C@@]12C [FLUOCINONIDE] | 6.76
68 | CC(C)NCC(O)c1cc(O)cc(O)c1 (configuration not stated) [METAPROTERENOL] | 4.84
69 | CC[C@H]1OC(=O)[C@H](C)C(=O)[C@H](C)[C@@H](O[C@@H]2O[C@H](C)C[C@H](N(C)C)[C@H]2O)[C@](C)(OC)C[C@@H](C)C(=O)[C@H](C)[C@@H]2N(CCCCn3cnc(-c4cccnc4)c3)C(=O)O[C@@]21C | 3.63
70 | Cn1cnc([N+](=O)[O-])c1Sc1ncnc2[nH]cnc12 [AZATHIOPRINE] | 22.34
71 | OCCN1C[C@H](O)[C@@H](O)[C@H](O)[C@H]1CO [MIGLITOL] | 23.8
72 | COC(=O)C1=C(C)NC(C)=C(C(=O)OC(C)C)C1c1cccc2nonc12 (configuration not stated) [ISRADIPINE] | 14.96
